# Measured values: the supplement of paper PMC10849652
# By UniProt entry, the sequences of proteins in these tests, tags left out. Where a name states a change or a piece, a line headed by the entry shows the natural chain unless it says otherwise.
# UniProt P00846: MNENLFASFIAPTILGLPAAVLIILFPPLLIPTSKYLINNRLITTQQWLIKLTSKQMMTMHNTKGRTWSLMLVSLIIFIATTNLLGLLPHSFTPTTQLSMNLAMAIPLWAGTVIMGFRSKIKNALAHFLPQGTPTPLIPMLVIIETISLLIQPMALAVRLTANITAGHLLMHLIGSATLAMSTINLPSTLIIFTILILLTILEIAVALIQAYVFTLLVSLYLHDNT
# UniProt Q8NCE2: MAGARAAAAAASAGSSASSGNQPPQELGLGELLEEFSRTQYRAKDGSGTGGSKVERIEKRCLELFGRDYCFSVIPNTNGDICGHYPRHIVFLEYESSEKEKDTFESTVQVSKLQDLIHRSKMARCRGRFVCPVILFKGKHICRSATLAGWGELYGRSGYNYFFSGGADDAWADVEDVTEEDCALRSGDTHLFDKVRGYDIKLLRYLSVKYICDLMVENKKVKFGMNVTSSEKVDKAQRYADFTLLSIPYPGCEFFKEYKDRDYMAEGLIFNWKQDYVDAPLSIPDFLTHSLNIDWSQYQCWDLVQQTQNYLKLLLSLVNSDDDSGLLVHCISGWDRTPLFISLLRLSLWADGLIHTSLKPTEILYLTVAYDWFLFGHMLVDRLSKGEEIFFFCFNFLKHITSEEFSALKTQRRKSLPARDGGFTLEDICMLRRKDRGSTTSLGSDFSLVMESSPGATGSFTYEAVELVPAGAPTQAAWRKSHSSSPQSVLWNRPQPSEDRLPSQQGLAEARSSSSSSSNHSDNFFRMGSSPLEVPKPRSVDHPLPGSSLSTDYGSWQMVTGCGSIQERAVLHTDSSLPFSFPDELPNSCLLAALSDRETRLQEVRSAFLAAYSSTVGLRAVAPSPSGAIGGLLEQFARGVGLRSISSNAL
# UniProt P35580, whole entry, looked up: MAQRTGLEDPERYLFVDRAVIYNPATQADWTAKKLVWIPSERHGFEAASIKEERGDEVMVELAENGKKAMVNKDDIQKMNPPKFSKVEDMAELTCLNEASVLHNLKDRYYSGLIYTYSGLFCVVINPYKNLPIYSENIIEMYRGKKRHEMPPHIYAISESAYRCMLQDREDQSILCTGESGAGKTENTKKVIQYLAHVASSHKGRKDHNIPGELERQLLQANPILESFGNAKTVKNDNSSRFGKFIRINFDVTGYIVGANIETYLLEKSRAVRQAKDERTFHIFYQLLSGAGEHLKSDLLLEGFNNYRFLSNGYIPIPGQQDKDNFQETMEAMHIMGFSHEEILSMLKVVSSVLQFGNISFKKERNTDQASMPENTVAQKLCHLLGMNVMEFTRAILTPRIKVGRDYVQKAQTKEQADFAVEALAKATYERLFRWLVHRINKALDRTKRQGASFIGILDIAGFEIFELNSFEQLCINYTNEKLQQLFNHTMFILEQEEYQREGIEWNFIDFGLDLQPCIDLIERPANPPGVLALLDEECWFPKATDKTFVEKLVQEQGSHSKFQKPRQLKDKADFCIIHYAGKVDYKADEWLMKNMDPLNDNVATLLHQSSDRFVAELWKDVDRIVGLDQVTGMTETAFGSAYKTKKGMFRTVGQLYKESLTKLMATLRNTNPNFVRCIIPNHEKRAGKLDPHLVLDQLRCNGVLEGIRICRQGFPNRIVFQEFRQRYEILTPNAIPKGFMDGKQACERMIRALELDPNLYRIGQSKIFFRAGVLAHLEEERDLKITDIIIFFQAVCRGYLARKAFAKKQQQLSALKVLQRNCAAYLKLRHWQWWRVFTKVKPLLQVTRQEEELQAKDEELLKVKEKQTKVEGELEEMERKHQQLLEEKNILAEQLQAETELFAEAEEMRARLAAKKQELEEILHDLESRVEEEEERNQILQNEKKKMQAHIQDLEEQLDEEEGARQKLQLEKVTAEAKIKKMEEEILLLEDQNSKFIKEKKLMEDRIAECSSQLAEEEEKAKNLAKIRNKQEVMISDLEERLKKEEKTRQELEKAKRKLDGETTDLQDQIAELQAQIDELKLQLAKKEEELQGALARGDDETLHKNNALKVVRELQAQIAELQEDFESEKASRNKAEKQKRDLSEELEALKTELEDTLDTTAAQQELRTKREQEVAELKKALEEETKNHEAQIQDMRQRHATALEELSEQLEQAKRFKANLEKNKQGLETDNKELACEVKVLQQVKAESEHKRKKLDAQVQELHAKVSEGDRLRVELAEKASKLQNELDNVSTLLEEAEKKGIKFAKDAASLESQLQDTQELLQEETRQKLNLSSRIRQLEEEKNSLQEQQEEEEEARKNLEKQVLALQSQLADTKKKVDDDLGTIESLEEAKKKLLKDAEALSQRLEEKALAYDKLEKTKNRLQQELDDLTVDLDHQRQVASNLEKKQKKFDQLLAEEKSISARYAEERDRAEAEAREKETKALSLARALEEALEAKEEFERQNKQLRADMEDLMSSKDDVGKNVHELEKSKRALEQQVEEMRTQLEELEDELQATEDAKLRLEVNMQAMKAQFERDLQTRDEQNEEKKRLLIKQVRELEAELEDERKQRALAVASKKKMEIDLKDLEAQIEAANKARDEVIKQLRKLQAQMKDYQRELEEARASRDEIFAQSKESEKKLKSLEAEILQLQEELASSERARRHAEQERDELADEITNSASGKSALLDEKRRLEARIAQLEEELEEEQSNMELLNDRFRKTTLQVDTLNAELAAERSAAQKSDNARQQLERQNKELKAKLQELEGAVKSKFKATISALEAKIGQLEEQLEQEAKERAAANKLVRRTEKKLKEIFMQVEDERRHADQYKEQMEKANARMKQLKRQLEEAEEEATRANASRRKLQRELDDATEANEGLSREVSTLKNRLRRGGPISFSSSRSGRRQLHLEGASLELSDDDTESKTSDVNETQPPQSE
# UniProt Q6P444: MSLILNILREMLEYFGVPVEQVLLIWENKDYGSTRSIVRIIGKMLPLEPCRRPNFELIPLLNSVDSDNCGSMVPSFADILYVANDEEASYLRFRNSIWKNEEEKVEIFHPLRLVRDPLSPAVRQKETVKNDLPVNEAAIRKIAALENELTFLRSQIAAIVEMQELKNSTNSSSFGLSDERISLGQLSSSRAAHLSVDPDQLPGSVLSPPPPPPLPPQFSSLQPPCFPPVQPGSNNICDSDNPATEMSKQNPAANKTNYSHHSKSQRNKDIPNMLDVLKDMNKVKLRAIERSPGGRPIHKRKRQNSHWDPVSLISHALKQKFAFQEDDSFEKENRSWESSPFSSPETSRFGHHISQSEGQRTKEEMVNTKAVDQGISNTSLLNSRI
# UniProt P12829: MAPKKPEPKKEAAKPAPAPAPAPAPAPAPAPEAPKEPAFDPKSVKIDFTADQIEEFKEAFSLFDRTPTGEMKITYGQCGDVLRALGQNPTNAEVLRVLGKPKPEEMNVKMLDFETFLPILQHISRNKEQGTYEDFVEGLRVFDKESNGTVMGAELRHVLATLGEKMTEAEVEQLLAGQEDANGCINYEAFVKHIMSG
# UniProt P49914: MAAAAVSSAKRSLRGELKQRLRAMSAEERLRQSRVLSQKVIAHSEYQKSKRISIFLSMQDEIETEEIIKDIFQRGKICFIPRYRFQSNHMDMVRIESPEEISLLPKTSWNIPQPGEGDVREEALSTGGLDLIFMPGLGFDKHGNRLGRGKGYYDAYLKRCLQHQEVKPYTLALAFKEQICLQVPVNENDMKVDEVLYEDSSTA
# UniProt P84157: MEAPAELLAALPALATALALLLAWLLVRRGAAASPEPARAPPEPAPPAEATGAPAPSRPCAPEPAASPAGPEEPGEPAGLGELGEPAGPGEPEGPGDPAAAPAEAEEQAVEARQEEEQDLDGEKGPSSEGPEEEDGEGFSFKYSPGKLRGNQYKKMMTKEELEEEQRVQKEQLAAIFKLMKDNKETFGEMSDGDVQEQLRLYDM
# UniProt O14950, whole entry, looked up: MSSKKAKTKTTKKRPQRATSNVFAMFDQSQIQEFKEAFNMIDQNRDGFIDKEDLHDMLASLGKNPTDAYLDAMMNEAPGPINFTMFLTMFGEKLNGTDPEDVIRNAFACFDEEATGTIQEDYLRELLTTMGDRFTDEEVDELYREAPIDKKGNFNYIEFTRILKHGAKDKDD
# This is one part of the list.
# What was measured:
# Experiment in all cases: log2 fold change, soluble protein after heating vs DMSO (PISA); higher = thermal stabilisation; K562 cells, 10 uM, 30 min; active = over 0.2 and 3.5 SD of the protein, either way, in both replicates (recomputed)
# [1] = compound: CC1=C(C=C(C=C1)NC(=O)C2=CC(=CC=C2)C(C)(C)C#N)NC3=CC4=C(C=C3)N=CN(C4=O)C
# Summary of the method: (§1)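 For each measurement, 10 μM compound was applied for 30 min to K562 cells at 2×10^6 cells/mL. Aliquots were heated for 3 min across 48°C-58°C, pooled, and extracted in PBS with 0.5% NP-40 at 4°C; the supernatant after 21,000xg for 90 min was soluble protein. This was quantified by TMTpro 16plex LC-MS/MS with channel sums equalised, and thermal stability was reported relative to control samples from duplicates, on a log2 fold-change scale.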
# [2] = compound: CC1=C(C=C(C=C1)NC(=O)C2=CC(=CC=C2)N(C)C)NC(=O)C3=CC=C(C=C3)O
# Summary of the method: as §1
# [3] = compound: CC1=CC=C(C=C1)SC2=C3C=C(SC3=CN=C2)C(=O)N
# Summary of the method: as §1
# [4] = compound: CC1=NC(=CC=C1)C2=C(N=C(N2)C(C)(C)C)C3=CC4=NC=CN=C4C=C3
# Summary of the method: as §1
# [5] = compound: CCCCN(Cc1ccc(C(=O)NO)cc1)C(=O)Nc1ccccc1 [Nexturastat A]
# Summary of the method: as §1
# [6] = compound: CCCS(=O)(=O)Nc1ccc(F)c(C(=O)c2c[nH]c3ncc(-c4ccc(Cl)cc4)cc23)c1F [vemurafenib]
# Summary of the method: as §1
# [7] = compound: CCCS(=O)(=O)Nc1ccc(F)c(C(=O)c2c[nH]c3ncc(Cl)cc23)c1F
# Summary of the method: as §1
# [8] = compound: CCCc1cc(C)[nH]c(=O)c1CNC(=O)c1cc(-c2ccnc(N3CCN(C)CC3)c2)cc2c1cnn2C(C)C
# Summary of the method: as §1
# [9] = compound: CCN(CC)Cc1ccc2cc(COC(=O)Nc3ccc(C(=O)NO)cc3)ccc2c1 [givinostat]
# Summary of the method: as §1
# [10] = compound: CCN(CCCOc1ccc2c(Nc3cc(CC(=O)Nc4cccc(F)c4)[nH]n3)ncnc2c1)CCOP(=O)(O)O [barasertib]
# Summary of the method: as §1
# [11] = compound: CC[C@@H]1C(=O)N(C)c2cnc(Nc3ccc(C(=O)NC4CCN(C)CC4)cc3OC)nc2N1C1CCCC1
# Summary of the method: as §1
# [12] = compound: CC[C@@H]1C(=O)N(C)c2cnc(Nc3ccc(C(=O)N[C@H]4CC[C@H](N5CCN(CC6CC6)CC5)CC4)cc3OC)nc2N1C(C)C [volasertib]
# Summary of the method: as §1
# [13] = compound: CC[C@H](C)N1C=C(C2=C(C=C(C=C21)C3=CN=C(C=C3)N4CCNCC4)C(=O)NCC5=C(C=C(NC5=O)C)C)C
# Summary of the method: as §1
# [14] = compound: CC[C@H](C)[C@@H](C(=O)N[C@@H]([C@@H](C)O)C(=O)N[C@@H](CC(C)C)C(=O)[C@]1(CO1)C)NC(=O)[C@H]([C@@H](C)CC)N(C)C(=O)C [epoxomicin]
# Summary of the method: as §1
# [15] = compound: CCn1cc(-c2ccnc3[nH]c(-c4cccc(CN(C)C)c4)cc23)c(-c2ccc(NC(=O)N(C)C)cc2)n1
# Summary of the method: as §1
# [16] = compound: CN(C)CC(=O)Nc1ccc2[nH]c(=O)c3ccccc3c2c1
# Summary of the method: as §1
# [17] = compound: CN1C2=C(C3=C1C(=O)N(N=C3)CC4=CC(=CC=C4)N)SC(=C2)S(=O)C
# Summary of the method: as §1
# [18] = compound: CN1CCC(CNc2ccc3ncc(-c4cccc(OC(F)(F)F)c4)n3n2)CC1
# Summary of the method: as §1
# [19] = compound: CCn1c(C(=O)N(C2CC2)C2CC2)cc2c3c(ncn3C)c(Nc3cc(C)n(C)n3)nc21
# Summary of the method: as §1
# [20] = compound: CN(CCOC1=CC=C(C=C1)C[C@H]2C(=O)NC(=O)S2)C3=CC=CC=N3 (racemic) [rosiglitazone]
# Summary of the method: as §1
Target,log2 fold change [1],log2 fold change [2],log2 fold change [3],log2 fold change [4],log2 fold change [5],log2 fold change [6],log2 fold change [7],log2 fold change [8],log2 fold change [9],log2 fold change [10],log2 fold change [11],log2 fold change [12],log2 fold change [13],log2 fold change [14],log2 fold change [15],log2 fold change [16],log2 fold change [17],log2 fold change [18],log2 fold change [19],log2 fold change [20]
MRPS24 (UniProt Q96EL2),inactive: -0.01,inactive: -0.037,inactive: 0.047,inactive: -0.003,inactive: 0.095,inactive: -0.065,inactive: 0.057,inactive: -0.016,inactive: -0.035,inactive: -0.024,inactive: -0.004,inactive: 0.121,inactive: 0.126,inactive: -0.067,inactive: -0.095,inactive: 0,inactive: -0.004,inactive: 0.07,–,–
MT-ATP6 (UniProt P00846),inactive: -0.009,inactive: 0.041,inactive: 0.008,inactive: 0.026,inactive: -0.133,inactive: -0.159,inactive: -0.043,inactive: -0.014,inactive: -0.074,inactive: 0.567,inactive: 0.043,inactive: -0.091,inactive: -0.057,inactive: 0.105,inactive: -0.152,inactive: -0.095,inactive: -0.239,inactive: -0.16,–,–
MTMR14 (UniProt Q8NCE2),inactive: -0.009,inactive: -0.048,inactive: -0.004,inactive: 0.02,inactive: 0.028,inactive: -0.02,inactive: 0.071,inactive: -0.016,inactive: 0.061,inactive: 0.019,inactive: -0.194,active: -0.622,inactive: 0.037,inactive: 0.019,inactive: -0.056,inactive: 0.001,inactive: 0.022,inactive: -0.039,–,–
MYH10 isoform 3 (UniProt P35580),inactive: 0.009,inactive: -0.033,inactive: 0.019,inactive: 0.07,inactive: -0.05,inactive: 0.028,inactive: 0.05,inactive: 0,inactive: -0.003,inactive: 0.038,inactive: -0.082,active: -0.216,inactive: 0.026,inactive: 0.094,inactive: -0.036,inactive: 0.024,inactive: -0.064,inactive: -0.077,–,–
MTFR2 (UniProt Q6P444),inactive: -0.076,inactive: -0.075,inactive: 0.196,inactive: 0.037,inactive: -0.036,inactive: -0.026,inactive: 0.165,inactive: -0.341,inactive: 0.038,inactive: 0.029,inactive: -0.05,inactive: -0.083,inactive: 0.053,inactive: 0.078,–,inactive: 0.006,inactive: 0.06,–,inactive: -0.039,inactive: 0.164
MRPS33 (UniProt Q9Y291),inactive: 0.075,inactive: -0.078,inactive: -0.025,inactive: -0.004,inactive: 0.098,inactive: 0.023,inactive: 0.073,inactive: -0.042,inactive: 0.043,inactive: -0.015,inactive: 0.016,inactive: 0.025,inactive: 0.057,inactive: -0.012,inactive: -0.011,inactive: -0.01,inactive: -0.001,inactive: 0.017,–,–
MRPS6 (UniProt P82932),inactive: 0.081,inactive: -0.052,inactive: 0.006,inactive: 0.128,inactive: 0.076,inactive: 0.1,inactive: 0.059,inactive: 0.062,inactive: 0.037,inactive: -0.017,inactive: -0.015,inactive: -0.045,inactive: 0.03,inactive: -0.012,inactive: -0.067,inactive: 0.09,inactive: -0.021,inactive: 0.027,–,–
MRPS35 (UniProt P82673),inactive: -0.016,inactive: -0.013,inactive: -0.04,inactive: -0.007,inactive: 0.167,inactive: -0.063,inactive: -0.022,inactive: 0.149,inactive: 0.017,inactive: -0.034,inactive: 0.064,inactive: 0.014,inactive: 0.029,inactive: 0.048,inactive: -0.076,inactive: 0.027,inactive: -0.013,inactive: -0.007,–,–
MYL4 (UniProt P12829),inactive: 0.008,inactive: -0.018,inactive: 0.002,inactive: 0.038,inactive: -0.018,inactive: -0.011,inactive: -0.084,inactive: -0.046,inactive: 0.002,inactive: -0.003,inactive: 0.035,inactive: 0.051,inactive: -0.048,inactive: 0.009,inactive: 0,inactive: -0.039,inactive: -0.014,inactive: -0.016,inactive: 0.032,inactive: -0.003
MTHFS (UniProt P49914),inactive: 0.047,inactive: -0.054,inactive: -0.01,inactive: 0.047,inactive: -0.005,inactive: -0.017,inactive: 0.01,inactive: -0.041,inactive: -0.063,inactive: 0.009,inactive: 0.082,active: 0.236,inactive: 0.034,inactive: 0.11,inactive: 0.02,inactive: 0.034,inactive: -0.022,inactive: -0.019,–,–
MRPS31 (UniProt Q92665),inactive: -0.015,inactive: -0.012,inactive: -0.041,inactive: -0.017,inactive: 0.111,inactive: -0.041,inactive: 0.054,inactive: -0.012,inactive: 0.009,inactive: -0.007,inactive: 0.056,inactive: 0,inactive: 0.036,inactive: -0.015,inactive: 0.014,inactive: -0.054,inactive: 0,inactive: 0.052,–,–
MXRA7 (UniProt P84157),inactive: -0.181,inactive: -0.015,inactive: 0.038,inactive: 0.011,inactive: -0.002,inactive: 0.041,inactive: -0.032,inactive: -0.078,inactive: 0.011,inactive: 0.048,inactive: 0.04,inactive: 0.08,inactive: -0.11,inactive: -0.034,inactive: -0.042,inactive: 0.124,inactive: -0.114,inactive: 0.113,–,–
MYL12B (UniProt O14950),inactive: 0.005,inactive: -0.015,inactive: 0.014,inactive: 0.007,inactive: -0.005,inactive: 0.039,inactive: 0.054,inactive: 0.136,inactive: -0.023,inactive: 0.014,inactive: -0.053,inactive: -0.085,inactive: 0.06,inactive: 0.052,inactive: -0.064,inactive: 0.031,inactive: -0.078,inactive: 0.01,–,–
MTOR (UniProt P42345),inactive: -0.033,inactive: -0.05,inactive: 0.02,inactive: -0.006,inactive: 0.009,inactive: 0.024,inactive: 0.071,inactive: 0.008,inactive: 0.038,inactive: 0.059,inactive: -0.131,active: -0.305,inactive: 0.04,inactive: -0.021,inactive: -0.073,inactive: 0.036,inactive: 0.017,active: -0.286,–,–
MRPS2 (UniProt Q9Y399),inactive: 0.075,inactive: -0.049,inactive: -0.018,inactive: 0.029,inactive: 0.049,inactive: 0.126,inactive: 0.041,inactive: -0.084,inactive: -0.044,inactive: -0.031,inactive: -0.048,inactive: 0.037,inactive: 0.053,inactive: 0.02,inactive: -0.045,inactive: 0.031,inactive: 0.016,inactive: 0.044,–,–
MRPS25 (UniProt P82663),inactive: 0.033,inactive: -0.009,inactive: 0.085,inactive: 0.078,inactive: 0.012,inactive: -0.089,inactive: 0.078,inactive: -0.082,inactive: 0.049,inactive: -0.02,inactive: 0.031,inactive: -0.057,inactive: 0.145,inactive: -0.126,inactive: -0.295,inactive: -0.056,inactive: 0.074,inactive: 0.036,–,–
MRPS27 isoform 2 (UniProt Q92552),inactive: 0.037,inactive: -0.022,inactive: 0.006,inactive: 0.039,inactive: 0.151,inactive: 0.064,inactive: 0.035,inactive: 0.051,inactive: 0.055,inactive: -0.016,inactive: -0.02,inactive: -0.041,inactive: 0.132,inactive: 0.052,inactive: -0.046,inactive: 0.019,inactive: 0.047,inactive: -0.001,–,–

# Single records, from the list above. Order of values: log2 fold change [1] | log2 fold change [2] | log2 fold change [3] | log2 fold change [4] | log2 fold change [5] | log2 fold change [6] | log2 fold change [7] | log2 fold change [8] | log2 fold change [9] | log2 fold change [10] | log2 fold change [11] | log2 fold change [12] | log2 fold change [13] | log2 fold change [14] | log2 fold change [15] | log2 fold change [16] | log2 fold change [17] | log2 fold change [18] | log2 fold change [19] | log2 fold change [20]
# MRPS25 (UniProt P82663) reads inactive: 0.033 | inactive: -0.009 | inactive: 0.085 | inactive: 0.078 | inactive: 0.012 | inactive: -0.089 | inactive: 0.078 | inactive: -0.082 | inactive: 0.049 | inactive: -0.02 | inactive: 0.031 | inactive: -0.057 | inactive: 0.145 | inactive: -0.126 | inactive: -0.295 | inactive: -0.056 | inactive: 0.074 | inactive: 0.036 | – | –
# MYL12B (UniProt O14950) reads inactive: 0.005 | inactive: -0.015 | inactive: 0.014 | inactive: 0.007 | inactive: -0.005 | inactive: 0.039 | inactive: 0.054 | inactive: 0.136 | inactive: -0.023 | inactive: 0.014 | inactive: -0.053 | inactive: -0.085 | inactive: 0.06 | inactive: 0.052 | inactive: -0.064 | inactive: 0.031 | inactive: -0.078 | inactive: 0.01 | – | –
